“Also recorded” adds a separate entry of the source. For at least one compound, name, drawing or mass did not settle the structure.
Key:
[1] = tested on: acute myelogenous leukemia (AML); conditions: non-responsive AML patients, valspodar during chemotherapy; cited from earlier work
MCF-7DOX cells [2] = test: Cellular doxorubicin uptake by flow cytometry; conditions: valspodar pretreatment
MCF-7DOX cells [3] = type: cell-based
Excerpt: (§1) Twice weekly, nonadherent (dead) cells were removed by discarding the existing medium and replacing it with fresh, drug-containing medium. […] At the end of the two-week period, all remaining viable cells were released by trypsinization, diluted 10-fold into PBS, and harvested by centrifugation. The cells were resuspended in fresh H-21 medium, with several aliquots removed for storage and future analysis. […] Nonadherent dead cells were again removed as described above and the process repeated until a drug dose was reached where all cells in the population were killed. Cells that grew at the maximally-tolerated drug concentrations were deemed to be “terminally selected”.
(§2) Thus, the concentration of valspodar used in some experiments was increased to 10 μM.
(§3) Briefly, 5 ml of H21 medium with 10% fetal bovine serum was introduced into 12 tissue culture flasks (25 cm^2 area) and each flask seeded with 2.5×10^5 cells. […] Each sample was vortexed vigorously for 10 s to ensure even distribution of cells within the viscous medium. 1.2 ml of each cellular suspension were placed into 6 well plates and incubated for a minimum of one week at 37° C./5% CO2 until large colonies of cells were visible.

MCF-7TAX cells [4] = type: cell-based
Excerpt: as §1, §2, §3

MCF-7TAX cells [5] = test: [3H]-paclitaxel / [14C]-5-fluorouracil accumulation by liquid scintillation; conditions: valspodar pretreatment, 24 hours of drug accumulation
MCF-7DOX cells [6] = test: as above; conditions: valspodar pretreatment

## C/C=C/C[C@@H](C)C(=O)[C@H]1C(=O)N[C@@H](C(C)C)C(=O)N(C)CC(=O)N(C)[C@@H](CC(C)C)C(=O)N[C@@H](C(C)C)C(=O)N(C)[C@@H](CC(C)C)C(=O)N[C@@H](C)C(=O)N[C@H](C)C(=O)N(C)[C@@H](CC(C)C)C(=O)N(C)[C@@H](CC(C)C)C(=O)N(C)[C@@H](C(C)C)C(=O)N1C [valspodar]
[1]
  patients achieving complete remission: 32%
  patients achieving partial remission: 11%
MCF-7DOX cells [2]
  restoration of doxorubicin accumulation: significantly but not fully restore
MCF-7DOX cells [3]; 10 μM valspodar in the medium vs 2 μM (data not shown)
  effect of increasing valspodar concentration on killing: no additional killing effect
MCF-7DOX cells [3]; MCF-7DOX cells, 2 μM valspodar
  restoration of sensitivity to doxorubicin: significantly but not completely restored
  restoration of sensitivity to paclitaxel: significantly but not completely restored
MCF-7TAX cells [4]; preincubation with 2 μM valspodar
  restoration of sensitivity to paclitaxel: fully restored
MCF-7TAX cells [4]; valspodar pretreatment
  effect on cross-resistance / toxicity of doxorubicin: essentially unaffected; also recorded: little effect
MCF-7TAX cells [5]
  restoration of paclitaxel accumulation: fully restored
MCF-7DOX cells [6]
  restoration of paclitaxel accumulation: significantly but not fully restore

Source: patent publication US7588903B2, “Use of isogenic drug-resistant cell lines to determine the sequence of chemotherapeutic drug treatment” (priority 2003, dated 2009)
